Taken from: PubChem BioAssay AID1224830 (NIAID, 2016)
Aim: 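Host factors that control LPS-induced TNF expression in human macrophages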 (primary screen). Cell system: human THP-1 monocytic leukaemia cells, TNF dual-luciferase reporter clone, PMA-differentiated to macrophage-like cells. Reagent: siRNA pool against human genes, 50 nM. Timing: LPS for 4 h, given about 3 days after siRNA transfection. Conditions: bacterial LPS (TLR4 ligand), 10 ng/ml. Measurement: 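TNF firefly reporter luminescence divided by renilla, normalised to the plate median, then turned into a robust z-score for each replicate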. Scale: TNF reporter robust z-score: higher = stronger TNF reporter response to LPS. Call rule: 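Each well counts as active if its z-score is over 2.8 or under -1.5; controls are left without a call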.
Here is an unselected part of about 18,000 reagents tested. Of all reagents, about 2,900 (16%) are marked active. 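Calls are made per well; low scores hint the gene aids the LPS response, high scores that it dampens it.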 Entries without a mark were called inactive. Repeated entries: four replicate wells of each siRNA pool.

| gene knocked down | TNF reporter robust z-score |
| --- | --- |
| TRIM42 (GeneID 287015) | 3.65 (active) |
| TRIM42 (GeneID 287015) | 1.33 |
| TRIM42 (GeneID 287015) | -1.35 |
| TRIM42 (GeneID 287015) | 1.88 |
| NUCB1 (GeneID 4924) | 2.78 |
| NUCB1 (GeneID 4924) | 2.16 |
| NUCB1 (GeneID 4924) | 1.93 |
| NUCB1 (GeneID 4924) | 1.14 |
| CD2BP2 (GeneID 10421) | -0.48 |
| CD2BP2 (GeneID 10421) | -1.22 |
| CD2BP2 (GeneID 10421) | -1.04 |
| CD2BP2 (GeneID 10421) | -0.47 |
| GOLGA2P5 (GeneID 55592) | 1.57 |
| GOLGA2P5 (GeneID 55592) | 1.07 |
| GOLGA2P5 (GeneID 55592) | 0.97 |
| GOLGA2P5 (GeneID 55592) | 0.52 |
| DHX34 (GeneID 9704) | 1.63 |
| DHX34 (GeneID 9704) | 0.63 |
| DHX34 (GeneID 9704) | 1.23 |
| DHX34 (GeneID 9704) | 0.9 |
| IGF2-AS (GeneID 51214) | -0.55 |
| IGF2-AS (GeneID 51214) | -0.17 |
| IGF2-AS (GeneID 51214) | 0.05 |
| IGF2-AS (GeneID 51214) | 2.36 |
| ANO5 (GeneID 203859) | 2.2 |
| ANO5 (GeneID 203859) | -0.48 |
| ANO5 (GeneID 203859) | -0.21 |
| ANO5 (GeneID 203859) | -0.12 |
| PLEKHG4B (GeneID 153478) | -0.17 |
| PLEKHG4B (GeneID 153478) | -1.29 |
| PLEKHG4B (GeneID 153478) | 0.54 |
| PLEKHG4B (GeneID 153478) | 0.24 |
| TRABD (GeneID 80305) | 2.17 |
| TRABD (GeneID 80305) | 0.92 |
| TRABD (GeneID 80305) | 0.55 |
| TRABD (GeneID 80305) | 0.04 |
| TET2 (GeneID 54790) | -0.23 |
| TET2 (GeneID 54790) | 2.17 |
| TET2 (GeneID 54790) | 2.3 |
| TET2 (GeneID 54790) | 3.31 (active) |
| BANF1 (GeneID 8815) | 2.75 |
| BANF1 (GeneID 8815) | 1.46 |
| BANF1 (GeneID 8815) | 2.7 |
| BANF1 (GeneID 8815) | 0.57 |
| CORO7 (GeneID 79585) | -0.31 |
| CORO7 (GeneID 79585) | -0.17 |
| CORO7 (GeneID 79585) | -0.61 |
| CORO7 (GeneID 79585) | 1.63 |
| TOM1L1 (GeneID 10040) | 4.27 (active) |
| TOM1L1 (GeneID 10040) | 1.14 |
| TOM1L1 (GeneID 10040) | 0.16 |
| TOM1L1 (GeneID 10040) | 0.5 |
| PHLDA2 (GeneID 7262) | -1.68 (active) |
| PHLDA2 (GeneID 7262) | -1.32 |
| PHLDA2 (GeneID 7262) | -0.71 |
| PHLDA2 (GeneID 7262) | -1.07 |
| BTN2A3P (GeneID 54718) | -1.84 (active) |
| BTN2A3P (GeneID 54718) | -1.33 |
| BTN2A3P (GeneID 54718) | -1.62 (active) |
| BTN2A3P (GeneID 54718) | -0.74 |
| ELANE (GeneID 1991) | -0.16 |
| ELANE (GeneID 1991) | 0.65 |
| ELANE (GeneID 1991) | 0.76 |
| ELANE (GeneID 1991) | -0.1 |
| MIPEP (GeneID 4285) | 0.41 |
| MIPEP (GeneID 4285) | 0.57 |
| MIPEP (GeneID 4285) | 0.06 |
| MIPEP (GeneID 4285) | 0.59 |
| KLHL24 (GeneID 54800) | 0.48 |
| KLHL24 (GeneID 54800) | 1.6 |
| KLHL24 (GeneID 54800) | 0.28 |
| KLHL24 (GeneID 54800) | 0.27 |
| FBXL15 (GeneID 79176) | -0.23 |
| FBXL15 (GeneID 79176) | -1.09 |
| FBXL15 (GeneID 79176) | -0.27 |
| FBXL15 (GeneID 79176) | -1.1 |
| NSRP1 (GeneID 84081) | -1.76 (active) |
| NSRP1 (GeneID 84081) | -1.27 |
| NSRP1 (GeneID 84081) | -1.38 |
| NSRP1 (GeneID 84081) | -0.61 |
| CISH (GeneID 1154) | -0.15 |
| CISH (GeneID 1154) | 2.47 |
| CISH (GeneID 1154) | -0.94 |
| CISH (GeneID 1154) | 3.56 (active) |
| RASA2 (GeneID 5922) | -0.57 |
| RASA2 (GeneID 5922) | -0.37 |
| RASA2 (GeneID 5922) | -0.15 |
| RASA2 (GeneID 5922) | -0.42 |
| TNKS (GeneID 8658) | -1.4 |
| TNKS (GeneID 8658) | -0.37 |
| TNKS (GeneID 8658) | -0.56 |
| TNKS (GeneID 8658) | -0.48 |
| ELAPOR2 (GeneID 222223) | 0.58 |
| ELAPOR2 (GeneID 222223) | -0.15 |
| ELAPOR2 (GeneID 222223) | 0.92 |
| ELAPOR2 (GeneID 222223) | 0.45 |
| TRIM52 (GeneID 84851) | 0.12 |
| TRIM52 (GeneID 84851) | 0.84 |
| TRIM52 (GeneID 84851) | -0.02 |
| TRIM52 (GeneID 84851) | -0.42 |
| CIMAP1B (GeneID 440836) | -0.83 |
| CIMAP1B (GeneID 440836) | -0.49 |
| CIMAP1B (GeneID 440836) | -0.86 |
| CIMAP1B (GeneID 440836) | -0.29 |
| RBBP8 (GeneID 5932) | 0.23 |
| RBBP8 (GeneID 5932) | -0.05 |
| RBBP8 (GeneID 5932) | 0 |
| RBBP8 (GeneID 5932) | 0.16 |
| GARIN4 (GeneID 149647) | -0.93 |
| GARIN4 (GeneID 149647) | -0.49 |
| GARIN4 (GeneID 149647) | -0.54 |
| GARIN4 (GeneID 149647) | -0.89 |
| TMEM222 (GeneID 84065) | 0.63 |
| TMEM222 (GeneID 84065) | 1.12 |
| TMEM222 (GeneID 84065) | 0.13 |
| RAB22A (GeneID 57403) | -0.45 |
| RAB22A (GeneID 57403) | 0.01 |
| RAB22A (GeneID 57403) | 0.42 |
| RAB22A (GeneID 57403) | 1.23 |
| AP2S1 (GeneID 1175) | 0.04 |
| AP2S1 (GeneID 1175) | -0.52 |
| AP2S1 (GeneID 1175) | -0.65 |
| AP2S1 (GeneID 1175) | -0.2 |
| SLC44A4 (GeneID 80736) | -0.17 |
| SLC44A4 (GeneID 80736) | 0.02 |
| SLC44A4 (GeneID 80736) | -0.22 |
| SLC44A4 (GeneID 80736) | -0.68 |
| HRCT1 (GeneID 646962) | -0.97 |
| HRCT1 (GeneID 646962) | -1.27 |
| HRCT1 (GeneID 646962) | -0.76 |
| HRCT1 (GeneID 646962) | -0.49 |
| REC114 (GeneID 283677) | -0.11 |
| REC114 (GeneID 283677) | 0.56 |
| REC114 (GeneID 283677) | 0.09 |
| REC114 (GeneID 283677) | 0.59 |
| MAPKAP1 (GeneID 79109) | 2.39 |
| MAPKAP1 (GeneID 79109) | 0.93 |
| MAPKAP1 (GeneID 79109) | 0.34 |
| MAPKAP1 (GeneID 79109) | 1.19 |
| SERPINF1 (GeneID 5176) | 0.83 |
| SERPINF1 (GeneID 5176) | -0.59 |
| SERPINF1 (GeneID 5176) | 2.32 |
| SERPINF1 (GeneID 5176) | 1.04 |
